Test results reported in patent US9907860B2 (INSTITUT PASTEUR, priority 2014, dated 2018).

Key:
[1] = general procedure: Fmoc solid-phase peptide synthesis; PS 2-CT-Ser(tBu); HATU/DIEA; conditions: whole synthesis, scale 100 μmoles
[2] = general procedure: Fmoc solid-phase peptide synthesis; Rink Amide resin (miniCD4 peptides); Serine preloaded Chlorotrityl resin, PS 2-CT-Ser(tBu) (PS1); HATU/DIEA; conditions: late stage modification step
[3] = general procedure: Fmoc solid-phase peptide synthesis; Rink Amide resin; HATU/DIEA; conditions: whole synthesis, scale 100 μmoles, several disulfide bridges

Row | Substance | isolated yield [3] | other results
1 | γAbu-PS1 | – | isolated yield [1]: 37%
2 | SATP-γAbu-PS1 | – | step yield [2]: 76%
3 | Tpa-NLHK5CQLRCS11SLGLLGRCApTU1CACV-amide | 15% | –
4 | Tpa-NLHK5CQLRCR11SLGLLGRCApTU1CACV-amide | 21% | –
5 | Tpa-NLHK5CQLRCSSLGLLGRCAGS-Bip-CACV-amide | 21% | –
6 | Tpa-NLHFCQLRCK11SLGLLGRCApTU1CACV-amide | 6% | –
